No constants are given. Whether binding was seen depends on the method and setting. In cells and extracts the contact can be indirect. Some entries that bind do so weakly or less than the wild type. For some of these results: Tags and fused reporters may be left off the sequences shown.
Columns and labels:
[1] = molecular target: T1, Aldo-keto reductase 1C3 (AKR1C3), endogenous in SKGT-4 cells (human (endogenous in SKGT-4)) (UniProt P42330); assay: co-IP; EAC cell lysates (OE33 VEC/AKR1C3, SKGT-4 shNT/shAKR1C3) incubated with IP antibody (anti-AKR1C3, anti-HSPA5) overnight at 4 °C, protein A/G Dynabeads, three washes with lysis buffer, western blot
T1 sequence: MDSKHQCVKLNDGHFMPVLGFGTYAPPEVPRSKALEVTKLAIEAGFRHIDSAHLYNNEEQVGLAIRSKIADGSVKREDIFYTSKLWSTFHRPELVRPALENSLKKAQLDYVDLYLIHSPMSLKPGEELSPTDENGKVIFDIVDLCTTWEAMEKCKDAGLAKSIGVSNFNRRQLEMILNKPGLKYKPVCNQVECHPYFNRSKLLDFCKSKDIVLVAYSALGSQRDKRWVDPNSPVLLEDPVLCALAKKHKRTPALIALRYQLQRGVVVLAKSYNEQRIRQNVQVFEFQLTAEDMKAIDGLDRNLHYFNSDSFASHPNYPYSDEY

The chains behind the UniProt entries cited, without tags or fusion partners. Where a name states a change or a piece, a line headed by the entry shows the natural chain unless it says otherwise. A line that says so, or that is headed by a name, gives the form on record, which may keep a tag or linker. Residues count along the entry.
UniProt P11021: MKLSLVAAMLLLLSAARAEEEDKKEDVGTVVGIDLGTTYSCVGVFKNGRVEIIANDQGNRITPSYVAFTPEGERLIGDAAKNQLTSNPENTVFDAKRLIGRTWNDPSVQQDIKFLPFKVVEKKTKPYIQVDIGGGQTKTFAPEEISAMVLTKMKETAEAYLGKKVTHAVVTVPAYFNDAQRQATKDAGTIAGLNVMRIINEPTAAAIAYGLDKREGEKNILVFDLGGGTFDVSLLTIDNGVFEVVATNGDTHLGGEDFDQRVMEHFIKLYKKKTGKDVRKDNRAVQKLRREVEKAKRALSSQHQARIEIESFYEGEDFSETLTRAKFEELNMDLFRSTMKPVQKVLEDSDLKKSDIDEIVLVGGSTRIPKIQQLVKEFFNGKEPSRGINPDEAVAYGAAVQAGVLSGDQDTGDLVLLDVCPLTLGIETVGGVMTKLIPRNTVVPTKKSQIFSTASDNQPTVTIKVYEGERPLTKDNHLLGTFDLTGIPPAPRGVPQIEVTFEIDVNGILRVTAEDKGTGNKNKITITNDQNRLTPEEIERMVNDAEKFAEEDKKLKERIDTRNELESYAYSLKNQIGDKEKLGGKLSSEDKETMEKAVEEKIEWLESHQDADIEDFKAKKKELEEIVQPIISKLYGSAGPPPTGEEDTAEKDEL
Heat-shock-protein family A member 5 (HSPA5), endogenous in EAC cells (human (endogenous in OE33 and SKGT-4)): residues 19-654 of P11021
HA-tagged truncated HSPA5, nucleotide-binding domain (125 - 399 aa): residues 125-399 of P11021
UniProt P19474: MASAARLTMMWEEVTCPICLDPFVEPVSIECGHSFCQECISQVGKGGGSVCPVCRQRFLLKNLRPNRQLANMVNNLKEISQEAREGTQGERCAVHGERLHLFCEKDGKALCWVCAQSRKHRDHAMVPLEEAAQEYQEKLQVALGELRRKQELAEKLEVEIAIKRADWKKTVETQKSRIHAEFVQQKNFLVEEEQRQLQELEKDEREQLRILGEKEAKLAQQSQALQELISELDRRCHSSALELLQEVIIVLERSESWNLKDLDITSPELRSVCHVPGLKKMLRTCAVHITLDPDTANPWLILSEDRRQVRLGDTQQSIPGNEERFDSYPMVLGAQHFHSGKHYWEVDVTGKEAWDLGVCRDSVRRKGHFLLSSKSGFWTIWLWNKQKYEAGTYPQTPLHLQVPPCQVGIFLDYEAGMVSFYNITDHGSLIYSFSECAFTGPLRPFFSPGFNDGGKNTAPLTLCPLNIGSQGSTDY

[2] = molecular target: T2, Aldo-keto reductase 1C3 (AKR1C3), overexpressed in OE33 cells (OE33 AKR1C3) (UniProt P42330); assay: as above
T2 sequence: T1 sequence

[3] = molecular target: Heat-shock-protein family A member 5 (HSPA5), endogenous in EAC cells (human (endogenous in OE33 and SKGT-4)) (UniProt P11021); assay: as above
[4] = molecular target: HA-tagged truncated HSPA5, nucleotide-binding domain (125 - 399 aa) (UniProt P11021); assay: co-IP; HA-tagged truncated HSPA5 co-transfected with Flag-tagged AKR1C3 into HEK293T cells; IP with anti-HA antibody, western blot

In the case of “Heat-shock-protein family A member 5 (HSPA5), endogenous in EAC cells (from UniProt P11021 19-654)”, the binding [1] is reported as “binds” and the binding [2] is reported as “binds”.

“Tripartite motif-containing protein 21 (TRIM21), endogenous in EAC cells (from UniProt P19474 1-475)” was tested, and the binding [3] was “binds”.

B1: Flag-tagged AKR1C3, full length (protein, UniProt P42330 1-323)
chain: T1 sequence
B1 was tested, and the binding [4] was “binds”.

— paper PMC12222831
